Drawing on publication PMC6728359, “Crystal structure and chemical inhibition of essential schistosome host-interactive virulence factor carbonic anhydrase SmCA” (Communications Biology, 2019), this text covers Ki for 2 molecules.

Protein sequences, listed by entry. Tags and fused reporters are not part of them. Residues count along the entry.
UniProt A0A3Q0KSG2, 21-298 limits assumed: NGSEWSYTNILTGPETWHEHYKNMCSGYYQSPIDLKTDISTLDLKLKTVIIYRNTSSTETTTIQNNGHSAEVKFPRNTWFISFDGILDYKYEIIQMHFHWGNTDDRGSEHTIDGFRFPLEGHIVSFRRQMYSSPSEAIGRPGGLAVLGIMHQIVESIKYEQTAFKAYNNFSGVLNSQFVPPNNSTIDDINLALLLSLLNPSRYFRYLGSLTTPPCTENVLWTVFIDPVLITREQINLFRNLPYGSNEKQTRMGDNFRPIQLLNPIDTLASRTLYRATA

pKi: −log10 of the molar value.

The target in assay [1] is rSmCA (recombinant SmCA, α-carbonic anhydrase) (Schistosoma mansoni, UniProt A0A3Q0KSG2). Kind of assay: biochemical.
Assay [2] addresses recombinant human isoform hCA II. The note with it: read-out: Ki hCAII; cited from earlier work.

As to `CC(=O)Nc1nnc(S(N)(=O)=O)s1` [AAZ, acetazolamide], the pKi (in general, the Ki on a negative log10 scale, so that one unit is a factor of ten) in assay [1] is 7.37.
Consider `CCN[C@H]1C[C@H](C)S(=O)(=O)c2sc(S(N)(=O)=O)cc21` [DZA, dorzolamide], for which the pKi in assay [2] is 8.10.
